# Laboratory results from paper PMC11053683, “Tuning of the Anti-Breast Cancer Activity of Betulinic Acid via Its Conversion to Ionic Liquids” (Pharmaceutics, 2024).
# System: MCF-7 cells
# Assay: DSC of treated MCF-7 cells (thermodynamic behavior)
# Format: cell-based, human
# Details: MCF-7 treated 72 h at IC50 concentration
Structure (SMILES),downshift of main LT transition (T1) compared to the control,downshift of shoulder Sh1 with respect to the control cells
"C=C(C)[C@@H]1CC[C@]2(C(=O)O)CC[C@]3(C)[C@H](CC[C@@H]4[C@@]5(C)CC[C@H](O)C(C)(C)[C@@H]5CC[C@]43C)[C@@H]12 [BA, Betulinic acid]",more than 1 °C,6 °C
C=C(C)C1CCC2(C(=O)O)CCC3(C)C(CCC4C5(C)CCC(O)C(C)(C)C5CCC43C)C12.C=C(C)C1CCC2(C(=O)O)CCC3(C)C(CCC4C5(C)CCC(O)C(C)(C)C5CCC43C)C12.CCOC(=O)C(N)CCCCN (stereo not drawn) [[LysOEt][BA]2],,6 °C
